Results reported in patent US7977107B2, “Oral detection test for cannabinoid use” (LabOne, Inc., priority 2004, dated 2011).

Test: THCA-glucuronide liberation by alkaline hydrolysis with NaOH, quantitated as THCA by GC/MS/MS

## CCCCCc1cc(O)c2c(c1)OC(C)(C)[C@H]1CCC(C(=O)O[C@@H]3O[C@H](C(=O)O)[C@@H](O)[C@H](O)[C@H]3O)=C[C@H]21 [THCA-glucuronide]
N = 3, spiked at 66 pg/mL equivalent THCA
  Recovered THCA, Average: 62.64 pg/mL
Single replicates, oral fluid spiked with THCA-glucuronide at 66 pg/mL equivalent THCA, alkaline hydrolysis
  Recovered THCA: 64.47 pg/mL and 70.80 pg/mL and 52.65 pg/mL

“And” between values parts separate entries of the source, which are not always exact repeats. Equal entries are not always repeated.
